Results on one molecule are retold here after patent US20200405758A1.

For the experiment, the target named is T1, SEQ ID NO: 2 peptide (Modified sequence of Antigen; BCMA peptide with Cysteine and Proline added at N terminal end).
T1 sequence (peptide): CPAALSATEIEKSIS
The experiment in a line: ELISA on coated SEQ ID NO: 2 peptide. On the technique in general: In an ELISA, binding on a coated surface is turned into a signal by an enzyme label.

No constants are given. Whether binding was seen depends on the method and setting. Some binding calls cover weakened binding; strength is not graded here.

B1: BCMA mAb clone 1E1E (hybridoma supernatant) (antibody, V domains shown)
VH: QIQLVQSGPELKKPGETVKISCKASGYTFTNSGMNWVKQAPGKGLKWMGWINTYTGEPTYADDFKGRFAFSLETSASTAYLQINNLKNEDTATYFCVRAGSYRNYAMDYWGQGTSVTVSS
VL: DIVMTQAAPSVLVTPGESVSISCRSSKSLLYGNGNTYLYWFLQRPGQSPQLLIYRMSNLASGVPDRFSGSGSGTAFTLRISRVEAEDVGVYYCMQHLEYPLTFGAGTKLELK
For the molecule B1, the binding result is reported as “binds”.
